Results: PubChem BioAssay AID2685 (National Center for Advancing Translational Sciences (NCATS), 2010)
The list shows a part of the results. Further columns of the screen follow, without active or inactive calls. Compounds called inactive in the main read-out are mostly missing here. Potencies come from curve fits of mixed quality, noted in brackets.

Experiment: qHTS Assay for Lipid Storage Modulators in Drosophila S3 Cells;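 for cell number change: cells counted by Cell Tracker Red CMTPX staining in the red channel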
Conditions: BODIPY lipid droplet fluorescence, 18-24 h; for cell number change: measured here: cell count max response, cells fed with added oleic acid
Procedure, shortened: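 Drosophila S3 cells got compounds at several concentrations plus oleic acid (400 uM solution). Laser-scanning cytometry with 488 nm excitation read lipid droplets at 500-530 nm and cells at 575-640 nm. Percent activity was relative to 20 uM Triacsin C.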

[1] = measured here: lipid fluorescence (Fed channel) AC50, cells fed with added oleic acid
[2] = measured here: cell number channel AC50, cells fed with added oleic acid

SMILES | cell number change | AC50 [1] | AC50 [2]
COc1ccccc1OCc1ccc(C(=O)n2nc(C)c(Cl)c2C)o1 | -37.8% | 20.6 µM [falling, single point] | 
NC(=O)CC[C@@H]1NC(=O)[C@H](Cc2ccc(O)cc2)NC(=O)c2cc([N+](=O)[O-])cc(F)c2OCC[C@@H](C(N)=O)NC1=O | -32.5% | 7.31 µM [falling, partial curve] | 0.164 µM [falling, full curve, poor fit]
CN1C(=O)NC(c2ccccc2)C2=C1CN(c1ccc3ccccc3c1)C2=O (configuration not stated) | 3.04% | 0.651 µM [falling, partial curve, poor fit] | 
Cc1ccc(SCC(=O)Nc2cccc(-c3nnc(-c4ccco4)o3)c2)cc1 | 40.7% | 2.91 µM [rising, full curve] | 2.31 µM [rising, full curve, poor fit]
O=C(CCC1N=C2c3ccccc3N=C(SCc3ccc(F)cc3)N2C1=O)NCc1ccco1 (configuration not stated) | -21.4% | 5.8 µM [falling, partial curve, poor fit] | 
COc1ccc([N+](=O)[O-])cc1NC(=O)Cc1ccc(Cl)cc1 | -0.141% | 1.46 µM [rising, partial curve, poor fit] | 
CCCc1cc(CNC(=O)C2CCC(=O)N(Cc3ccccc3OC)C2)on1 (configuration not stated) | -17.7% |  | 
Fc1ccc2nc3[nH]c4ccccc4c3nc2c1 | 25% |  | 
CCCCC(=O)Nc1nn(CCC)c2nc3ccccc3cc12 |  | 1.16 µM [rising, partial curve] | 1.84 µM [rising, partial curve]
CC(C)(C)NC(=O)NC(=O)Cn1cc(C(F)(F)F)ccc1=O | 17.5% |  | 
C/C(NCc1cccnc1)=C(\C#N)C(=O)NCc1ccccc1 | -5.98% |  | 
COCCn1c(SCC(=O)N2CCOCC2)nc2ccccc2c1=O | 19.8% | 29.1 µM [rising, single point] | 0.058 µM [rising, full curve, poor fit]
CCN(CC)S(=O)(=O)c1cccc(C(=O)NC(Cc2c[nH]c3ccccc23)c2nnc3n2CCC3)c1 (configuration not stated) | -21.3% | 0.13 µM [falling, full curve, poor fit] | 3.26 µM [falling, single point]
COc1ccc(CNC(=O)c2nc(S(=O)(=O)Cc3ccccc3)ncc2Cl)cc1 | 5.67% |  | 4.11 µM [falling, partial curve, poor fit]
O=C(OCc1ccc([N+](=O)[O-])cc1Cl)c1cnccn1 | -37.3% | 29.1 µM [falling, single point] | 18.4 µM [falling, partial curve, poor fit]
CCN(CC)S(=O)(=O)c1ccc2c(c1)c(=O)c(C(=O)NCc1ccc3c(c1)OCO3)cn2C | 0.877% | 0.259 µM [rising, full curve] | 
COc1ccc(-c2cc3ccc(OCC(N)=O)cc3oc2=O)cc1OC | -7.76% | 0.58 µM [falling, single point] | 
Cc1cccc(N2CCN(C(=O)CCCCCn3c(=S)[nH]c4ccc(N5CCOCC5)cc4c3=O)CC2)c1C |  | 18.4 µM [falling, partial curve] | 

Grouped by structure: the entries above containing an aryl methoxy group.
SMILES | cell number change | AC50 [1] | AC50 [2]
COc1ccccc1OCc1ccc(C(=O)n2nc(C)c(Cl)c2C)o1 | -37.8% | 20.6 µM [falling, single point] | 
COc1ccc([N+](=O)[O-])cc1NC(=O)Cc1ccc(Cl)cc1 | -0.141% | 1.46 µM [rising, partial curve, poor fit] | 
CCCc1cc(CNC(=O)C2CCC(=O)N(Cc3ccccc3OC)C2)on1 (configuration not stated) | -17.7% |  | 
COc1ccc(CNC(=O)c2nc(S(=O)(=O)Cc3ccccc3)ncc2Cl)cc1 | 5.67% |  | 4.11 µM [falling, partial curve, poor fit]
COc1ccc(-c2cc3ccc(OCC(N)=O)cc3oc2=O)cc1OC | -7.76% | 0.58 µM [falling, single point] | 

The list continues:

SMILES | cell number change | AC50 [1] | AC50 [2]
CCCN1CCN(C(=O)CN2C(=O)CC(C)(C)S(=O)(=O)c3ccccc32)CC1 | -39.1% | 29.1 µM [falling, partial curve] | 
COc1ccccc1NC(=O)Nc1nc(C(C)(C)C)cs1 | -42.9% |  | 6.51 µM [rising, partial curve, poor fit]
O=S(=O)(NCc1ccccc1)NCc1ccccc1 | -25.6% |  | 2.59 µM [falling, single point]
COc1cc2c(cc1OC)CN(C(=O)c1ccc3nc[nH]c3c1)CC2 | 5.85% | 0.13 µM [falling, full curve, poor fit] | 
COC(=O)C1=C(C(=O)OC)[C@@H]2N(C)c3ccc(OC)cc3[C@@]23C[C@@H](C(=O)OC)N(C(=O)c2cccs2)C3=N1 | 23.1% | 6.51 µM [rising, single point] | 
COc1cc(Cl)c([C@@H]2C[C@H]3CN(c4ccccc4)C(=O)[C@]34CCCN24)cc1OC | -15.9% |  | 6.51 µM [falling, single point]
O=C(Nc1ccc2nc3n(c(=O)c2c1)CCCCC3)C(=O)N1CCN(c2ccc(F)cc2)CC1 | -3.83% |  | 
CCOc1ccccc1-n1c(SCC(=O)Nc2nccs2)nnc1-c1ccoc1C | -9.57% | 0.164 µM [rising, full curve] | 
COc1ccc(NC(=O)CSc2nnc(NC(=O)C3CCC3)s2)cc1 | 39.3% | 0.103 µM [rising, full curve, poor fit] | 29.1 µM [rising, single point]
Cc1cccc(N(C)C(=O)COc2cc(=O)n(C)c3ccccc23)c1 | -14.4% | 0.0651 µM [rising, full curve, poor fit] | 
O=C(N/N=C/C1CC=CCC1)c1cc(Br)ccc1O (configuration not stated) | -9.38% | 6.51 µM [falling, partial curve, poor fit] | 
Cc1cccc(C(=O)C2CCN(S(=O)(=O)c3cccc(C(=O)O)c3)CC2)c1 | -1.21% | 2.91 µM [falling, single point] | 
O=C1CC(c2ccccc2Cl)CC(O)=C1C=Nc1ccccc1 (configuration not stated) | 24.4% | 29.1 µM [rising, single point] | 
N#Cc1ccc(OCC(=O)Nc2ccc(N3CCCC3)cc2)cc1 | -14.2% |  | 
Cc1ccc2ccccc2c1Cn1c(-n2ccnc2)nc2c1c(=O)n(C)c(=O)n2C | 31.4% | 29.1 µM [rising, partial curve, poor fit] | 0.146 µM [rising, full curve, poor fit]
OCC[C@@H]1C[C@H](O)[C@@H](O)[C@]2(CCc3ccccc3O2)O1 | 18.9% | 0.0164 µM [falling, full curve, poor fit] | 
COc1ccc(N=C2NC(=O)/C(=C\C=C\c3ccco3)S2)cc1 | -51.3% |  | 32.6 µM [falling, single point]
CC(Sc1nc(N)cc(=O)[nH]1)C(=O)N1CCOCC1 (configuration not stated) | -18.6% | 4.11 µM [falling, full curve] | 
